According to publication doi:10.1101/2021.05.06.443028:
These are yes or no findings as the source states them, for the method shown. For some of these results: In cells and extracts the contact can be indirect. Some binding calls cover weakened binding; strength is not graded here. For some of these results: Sequences can lack the tags named with a protein.

Sequences of proteins named here, by UniProt entry; tags and fusion partners are left off.
UniProt P19793: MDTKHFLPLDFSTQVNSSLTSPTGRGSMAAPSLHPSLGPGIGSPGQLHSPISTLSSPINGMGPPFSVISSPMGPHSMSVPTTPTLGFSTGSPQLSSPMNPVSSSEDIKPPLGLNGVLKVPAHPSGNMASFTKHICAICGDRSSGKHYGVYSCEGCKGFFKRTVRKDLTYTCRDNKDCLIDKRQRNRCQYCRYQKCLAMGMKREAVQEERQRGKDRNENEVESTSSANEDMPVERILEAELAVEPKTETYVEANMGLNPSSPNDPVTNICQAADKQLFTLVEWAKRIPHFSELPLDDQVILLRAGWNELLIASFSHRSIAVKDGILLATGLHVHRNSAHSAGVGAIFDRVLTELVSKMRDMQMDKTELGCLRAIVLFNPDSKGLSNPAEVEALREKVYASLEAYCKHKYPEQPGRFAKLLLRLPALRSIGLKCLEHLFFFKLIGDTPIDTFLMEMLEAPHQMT
UniProt P02340: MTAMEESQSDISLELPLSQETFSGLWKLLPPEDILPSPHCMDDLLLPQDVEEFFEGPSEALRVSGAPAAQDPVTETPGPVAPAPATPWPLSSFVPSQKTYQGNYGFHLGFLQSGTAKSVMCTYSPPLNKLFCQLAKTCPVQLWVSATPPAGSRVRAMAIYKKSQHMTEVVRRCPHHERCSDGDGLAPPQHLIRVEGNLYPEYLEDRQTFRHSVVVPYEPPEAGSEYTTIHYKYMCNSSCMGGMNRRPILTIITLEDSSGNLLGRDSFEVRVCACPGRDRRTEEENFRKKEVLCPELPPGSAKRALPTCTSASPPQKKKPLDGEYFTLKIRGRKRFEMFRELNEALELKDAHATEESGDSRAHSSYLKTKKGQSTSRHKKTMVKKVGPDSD

How the values were obtained:
[1] = target: T1, vitamin D receptor, human hippocampal tissue (human (endogenous in postmortem hippocampal tissue)) (UniProt P11473); test: proximity ligation
T1 sequence: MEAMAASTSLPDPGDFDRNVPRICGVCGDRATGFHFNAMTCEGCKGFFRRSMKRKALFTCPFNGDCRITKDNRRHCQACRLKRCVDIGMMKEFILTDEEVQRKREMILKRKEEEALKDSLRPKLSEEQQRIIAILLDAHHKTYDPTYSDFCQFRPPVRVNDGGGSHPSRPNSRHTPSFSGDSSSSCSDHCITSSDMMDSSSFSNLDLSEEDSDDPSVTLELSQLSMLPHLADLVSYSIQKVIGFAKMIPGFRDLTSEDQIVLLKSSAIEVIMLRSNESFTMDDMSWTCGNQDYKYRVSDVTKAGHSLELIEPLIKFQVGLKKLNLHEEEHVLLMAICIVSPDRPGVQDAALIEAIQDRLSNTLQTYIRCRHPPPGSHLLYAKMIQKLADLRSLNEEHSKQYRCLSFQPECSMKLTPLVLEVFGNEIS

[2] = target: T2, vitamin D receptor, mouse hippocampus (mouse (endogenous in hippocampal tissue)) (UniProt P48281); test: co-IP
T2 sequence: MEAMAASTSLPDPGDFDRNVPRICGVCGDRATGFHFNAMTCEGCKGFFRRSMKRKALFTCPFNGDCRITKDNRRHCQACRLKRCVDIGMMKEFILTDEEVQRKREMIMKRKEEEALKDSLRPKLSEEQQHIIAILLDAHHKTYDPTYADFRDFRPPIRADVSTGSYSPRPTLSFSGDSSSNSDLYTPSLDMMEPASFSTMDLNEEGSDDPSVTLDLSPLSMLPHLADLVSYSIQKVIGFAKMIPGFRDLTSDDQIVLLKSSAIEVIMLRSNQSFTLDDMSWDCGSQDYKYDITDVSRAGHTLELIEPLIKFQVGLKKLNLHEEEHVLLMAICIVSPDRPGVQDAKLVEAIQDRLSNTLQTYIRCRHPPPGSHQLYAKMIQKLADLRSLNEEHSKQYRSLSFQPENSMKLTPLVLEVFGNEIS

[3] = target: T3, vitamin D receptor, SH-SY5Y cells (human (endogenous in SH-SY5Y)) (UniProt P11473); test: co-IP
T3 sequence: T1 sequence

[4] = target: retinoid X receptor alpha (pCMV-BD-RXRα, two-hybrid bait) (UniProt P19793); test: two-hybrid

p53, human hippocampal tissue (from UniProt P04637 1-393)
binding [1]: binds

p53, mouse hippocampus (from UniProt P02340 1-390)
binding [2]: binds

p53, SH-SY5Y cells (from UniProt P04637 1-393)
binding [3]: binds

B1: vitamin D receptor (pCMV-AD-VDR, two-hybrid prey) (protein, UniProt P11473 1-427)
chain: T1 sequence
binding [4]: binds
